Screening data

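GFP-tagged normal-ribosome E. coli mixed with an RFP-tagged h34 humanized strain, with green signal taken as growth after 24 hours. The value is the change in activity at the highest dose tested; more negative means stronger inhibition. Active requires GFP to fall at least twice as much as RFP with growth loss below a set limit; inconclusive means no clear call; everything else is inactive.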

These entries are mostly ones the record files as inconclusive; other results of the assay are not listed here.

* CCOc1ccc2oc(-c3ccccc3)c(C(=O)N(C)C)c2c1 [at 50 µM (top of the series)] | activity change 5.462 (inconclusive)
* CC1CCC2(CC1)SCC(=O)N2c1ccc(F)cc1 (stereo not given) [at 50 µM (top of the series)] | activity change 9.039 (inconclusive)
* Cc1ccc(N2C(=S)NC3c4cc(Cl)ccc4OC2(C)C3C(=O)N(C)C)cc1 (stereo not given) [at 50 µM (top of the series)] | activity change 4.814 (inconclusive)
* Clc1ccc(-c2cn(-c3ccccc3)c3[n+]2CCS3)cc1 [at 50 µM (top of the series)] | activity change 40.82 (inconclusive)
* O=C1c2cccc3cccc(c23)C(=O)N1c1ccccc1Cl [at 50 µM (top of the series)] | activity change -19.95 (inconclusive)
* O=C(NC1CCCC(C(F)(F)F)C1)c1ccc([N+](=O)[O-])o1 (stereo not given) [at 50 µM (top of the series)] | activity change -26.33 (inconclusive)
* O=C(Nc1cccc(Cl)c1)N1C[C@@H]2[C@H](c3ccccc31)[C@H](CO)N2Cc1ccncc1 [at 50 µM (top of the series)] | activity change 9.242 (inactive)
* O=C(O)c1cccc2c1-c1ccc([N+](=O)[O-])cc1C2=O [at 50 µM (top of the series)] | activity change 45.49 (inconclusive)
* Cn1c(SCC(=O)Nc2ccccc2-c2ccccc2)nnc1-c1ccco1 [at 50 µM (top of the series)] | activity change -4.769 (inconclusive)
* Cc1ccc(NC(=O)C[n+]2cc(-c3ccccc3)n3c2CCC3)cc1 [at 50 µM (top of the series)] | activity change 31.84 (inconclusive)
* COc1cccc(NC(=O)c2ccc(-c3ccc([N+](=O)[O-])cc3)o2)c1 [at 50 µM (top of the series)] | activity change 4.737 (inconclusive)
* Brc1ccc(Nc2ncnc3[nH]ncc23)cc1 [at 50 µM (top of the series)] | activity change 18.56 (inconclusive)
* CCc1nnc(NS(=O)(=O)c2ccc(NC(=O)c3cc(Cl)ccc3[N+](=O)[O-])cc2)s1 [at 50 µM (top of the series)] | activity change -16.63 (inconclusive)
* O=C(Nc1cccc(Cl)c1)N1C[C@H]2[C@@H](c3ccccc31)[C@@H](CO)N2C(=O)c1ccncc1 [at 50 µM (top of the series)] | activity change 37.2 (inconclusive)
* O=C(Nc1ccc2c(c1)OCO2)c1cc(-c2ccncc2)nc2ccccc12 [at 50 µM (top of the series)] | activity change 1.809 (inconclusive)
* O=C(C[C@H]1CC[C@H]2[C@@H](COC[C@@H](O)CN2C(=O)Nc2cc(Cl)cc(Cl)c2)O1)N1CCOCC1 [at 50 µM (top of the series)] | activity change -55.49 (inconclusive)
* COc1cccc(SCC(=O)N2CCN(c3ccccc3)CC2)c1 [at 50 µM (top of the series)] | activity change 17.04 (inconclusive)
* O=C(COC(=O)CCSc1ccc(F)cc1)NCc1ccc(F)cc1 [at 50 µM (top of the series)] | activity change 11.52 (inconclusive)
* O=C(C[n+]1cc(-c2ccc(Cl)c(Cl)c2)n2c1CCC2)OCc1ccccc1 [at 50 µM (top of the series)] | activity change -2.335 (inconclusive)
* Cc1cc(NC(=O)CCCn2cc([N+](=O)[O-])cn2)n(Cc2ccc(F)cc2)n1 [at 50 µM (top of the series)] | activity change 11.38 (inactive)

The first 2 entries again:

| compound | condition | activity change | outcome |
|---|---|---|---|
| `CCOc1ccc2oc(-c3ccccc3)c(C(=O)N(C)C)c2c1` | at 50 µM (top of the series) | 5.462 | inconclusive |
| `CC1CCC2(CC1)SCC(=O)N2c1ccc(F)cc1` (stereo not given) | at 50 µM (top of the series) | 9.039 | inconclusive |

Source: PubChem BioAssay AID977624 (Broad Institute, 2014).